Results deposited as PubChem BioAssay AID743121 (NCATS, 2013).
Screen: 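Knock-downs that sensitise breast cancer cells to camptothecin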 (primary screen). Cells: MDA-MB-231 cells, a human breast cancer line. Reagents: single siRNA against human genes, 20 nM siRNA (0.8 pmol per well). Timing: 120 h (drug added 48 h after transfection, read 72 h later). Treatment: camptothecin 20 nM (about EC30) for 72 h; vehicle 0.1% DMSO in parallel plates. Detection: 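Cell viability by ATP luminescence (CellTiter-Glo) as % of non-targeting siRNA wells, and the log2 ratio of viability without drug over viability with camptothecin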. Reading the numbers: log2 vehicle/camptothecin viability: higher = stronger sensitisation to camptothecin; viability with camptothecin and viability without drug: higher = more viable cells. Rule for the call: 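Each gene scored by redundant siRNA activity (RSA) over its individual siRNA ratios; a gene is called active at p < 0.001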.
The whole screen tested about 26,000 reagents; this is a random part of them. Of all reagents, 167 (0.63%) are marked active. 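Calls are per gene from RSA p-values that are not deposited; an individual active-marked siRNA can sensitise only weakly.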 The numbers tell different reagents against one gene apart. Reagent sequences are not shown.

gene	reagent	log2 vehicle/camptothecin viability	viability with camptothecin (% of control)	viability without drug (% of control)	Outcome
TFEC (transcription factor EC)	1	-0.27	83.5	69.2	inactive
TFEC (transcription factor EC)	2	0.249	70.8	84.2	inactive
TFEC (transcription factor EC)	3	-0.298	90.7	73.8	inactive
COQ8B (coenzyme Q8B)	1	-0.257	94.3	78.9	inactive
COQ8B (coenzyme Q8B)	2	-0.301	75.7	61.4	inactive
COQ8B (coenzyme Q8B)	3	-0.327	105	83.4	inactive
COQ8B (coenzyme Q8B)	4	-0.184	82.1	72.2	inactive
TGFBR3 (transforming growth factor beta receptor 3)	1	-0.525	114	79.4	inactive
TGFBR3 (transforming growth factor beta receptor 3)	2	0.35	58.2	74.2	inactive
TGFBR3 (transforming growth factor beta receptor 3)	3	-0.142	56.8	51.5	inactive
TGFBR3 (transforming growth factor beta receptor 3)	4	0.414	63.9	85.2	inactive
CDK16 (cyclin dependent kinase 16)	1	-0.231	131	111	inactive
CDK16 (cyclin dependent kinase 16)	2	0.337	50	63.2	inactive
CDK16 (cyclin dependent kinase 16)	3	-0.506	93.9	66.1	inactive
CDK16 (cyclin dependent kinase 16)	4	-0.441	84.6	62.3	inactive
SPP1 (secreted phosphoprotein 1)	1	-0.167	94.6	84.2	inactive
SPP1 (secreted phosphoprotein 1)	2	-0.444	113	82.9	inactive
SPP1 (secreted phosphoprotein 1)	3	-0.163	46.6	41.6	inactive
SPP1 (secreted phosphoprotein 1)	4	0.0237	83.1	84.4	inactive
MMP23B (matrix metallopeptidase 23B)	1	-0.41	96.5	72.7	inactive
MMP23B (matrix metallopeptidase 23B)	2	-0.334	98.7	78.3	inactive
MMP23B (matrix metallopeptidase 23B)	3	-0.0817	24	22.7	inactive
AVP (arginine vasopressin)	1	-0.382	49	37.6	inactive
AVP (arginine vasopressin)	2	-0.0732	86.4	82.1	inactive
AVP (arginine vasopressin)	3	-0.368	33.2	25.7	inactive
AVP (arginine vasopressin)	4	-0.0255	60.1	59.1	inactive
TSPAN31 (tetraspanin 31)	1	-0.0707	111	106	inactive
TSPAN31 (tetraspanin 31)	2	0.026	78.9	80.4	inactive
TSPAN31 (tetraspanin 31)	3	0.487	43.8	61.3	inactive
TSPAN31 (tetraspanin 31)	4	-0.412	83.2	62.5	inactive
TFRC (transferrin receptor)	1	-0.489	89.9	64	inactive
TFRC (transferrin receptor)	2	-0.39	74.9	57.2	inactive
TFRC (transferrin receptor)	3	-0.452	67.7	49.5	inactive
TFRC (transferrin receptor)	4	-0.452	79.8	58.3	inactive
TFRC (transferrin receptor)	5	-0.314	62.1	50	inactive
TFRC (transferrin receptor)	6	-0.254	36.1	30.2	inactive
GGH (gamma-glutamyl hydrolase)	1	-0.0735	64.4	61.2	inactive
GGH (gamma-glutamyl hydrolase)	2	-0.16	86.9	77.8	inactive
GGH (gamma-glutamyl hydrolase)	3	-0.372	70.3	54.4	inactive
GGH (gamma-glutamyl hydrolase)	4	0.00114	77.7	77.7	inactive
TOB1 (transducer of ERBB2, 1)	1	-0.161	82.4	73.7	inactive
TOB1 (transducer of ERBB2, 1)	2	-0.132	107	97.3	inactive
TOB1 (transducer of ERBB2, 1)	3	-0.173	73.2	65	inactive
TOB1 (transducer of ERBB2, 1)	4	-0.0592	91.4	87.7	inactive
PAN3 (poly(A) specific ribonuclease subunit PAN3)	1	0.187	61.8	70.3	inactive
PAN3 (poly(A) specific ribonuclease subunit PAN3)	2	-0.0263	79.3	77.9	inactive
PAN3 (poly(A) specific ribonuclease subunit PAN3)	3	-0.0252	87.9	86.4	inactive
PAN3 (poly(A) specific ribonuclease subunit PAN3)	4	-0.00103	64.6	64.5	inactive
PDE5A (phosphodiesterase 5A)	1	-0.664	71.4	45	inactive
PDE5A (phosphodiesterase 5A)	2	-0.015	92.1	91.1	inactive
PDE5A (phosphodiesterase 5A)	3	0.0912	26.8	28.6	inactive
PDE5A (phosphodiesterase 5A)	4	-0.0406	99.6	96.8	inactive
TXNL1 (thioredoxin like 1)	1	-0.107	98.5	91.5	inactive
TXNL1 (thioredoxin like 1)	2	-0.164	101	89.9	inactive
TXNL1 (thioredoxin like 1)	3	-0.355	67.7	53	inactive
TXNL1 (thioredoxin like 1)	4	-0.307	119	95.9	inactive
BACH2 (BACH transcriptional regulator 2)	1	-0.31	54.3	43.8	inactive
BACH2 (BACH transcriptional regulator 2)	2	-0.181	44.2	39	inactive
BACH2 (BACH transcriptional regulator 2)	3	-0.316	84.7	68	inactive
BACH2 (BACH transcriptional regulator 2)	4	-0.138	91.2	82.9	inactive
GUCY1B2 (guanylate cyclase 1 soluble subunit beta 2 (pseudogene))	1	-0.0984	103	95.8	inactive
GUCY1B2 (guanylate cyclase 1 soluble subunit beta 2 (pseudogene))	2	-0.367	29.9	23.2	inactive
GUCY1B2 (guanylate cyclase 1 soluble subunit beta 2 (pseudogene))	3	-0.422	84.8	63.3	inactive
GUCY1B2 (guanylate cyclase 1 soluble subunit beta 2 (pseudogene))	4	-0.0439	104	101	inactive
PPP1R3A (protein phosphatase 1 regulatory subunit 3A)	1	-0.305	82	66.4	inactive
PPP1R3A (protein phosphatase 1 regulatory subunit 3A)	2	0.515	26.7	38.1	inactive
PPP1R3A (protein phosphatase 1 regulatory subunit 3A)	3	0.782	14.1	24.3	inactive
PPP1R3A (protein phosphatase 1 regulatory subunit 3A)	4	-0.479	74.4	53.4	inactive

Look-ups from the list:
GUCY1B2 (guanylate cyclase 1 soluble subunit beta 2 (pseudogene)) #1, viability with camptothecin (% of control) → 103
Entry for TSPAN31 (tetraspanin 31) #2 in “viability with camptothecin (% of control)”: 78.9
Entry for PDE5A (phosphodiesterase 5A) #1 under “log2 vehicle/camptothecin viability”: -0.664
Under “log2 vehicle/camptothecin viability”, BACH2 (BACH transcriptional regulator 2) #1 has -0.31
GGH (gamma-glutamyl hydrolase) #3, Outcome = inactive
AVP (arginine vasopressin) #4, log2 vehicle/camptothecin viability → -0.0255
